Reference: paper PMC7862700
This is one part of the list. The exact form of the protein is not confirmed.

biological target: T1, ETS1 (UniProt P14921); test: DAPPL (digital affinity profiling via proximity ligation, sequencing); conditions: 10 mM Tris-HCl pH 7.5, 50 mM NaCl, 1 mM DTT, 4% glycerol, room temperature, 30 min; GST-TFs on glutathione beads, 16-mer random dsDNA library, 0.1% …; high values mean tight binding; double strand, one strand shown; scale: fold enrichment (6-mer frequency, TF over GST control)
T1 sequence: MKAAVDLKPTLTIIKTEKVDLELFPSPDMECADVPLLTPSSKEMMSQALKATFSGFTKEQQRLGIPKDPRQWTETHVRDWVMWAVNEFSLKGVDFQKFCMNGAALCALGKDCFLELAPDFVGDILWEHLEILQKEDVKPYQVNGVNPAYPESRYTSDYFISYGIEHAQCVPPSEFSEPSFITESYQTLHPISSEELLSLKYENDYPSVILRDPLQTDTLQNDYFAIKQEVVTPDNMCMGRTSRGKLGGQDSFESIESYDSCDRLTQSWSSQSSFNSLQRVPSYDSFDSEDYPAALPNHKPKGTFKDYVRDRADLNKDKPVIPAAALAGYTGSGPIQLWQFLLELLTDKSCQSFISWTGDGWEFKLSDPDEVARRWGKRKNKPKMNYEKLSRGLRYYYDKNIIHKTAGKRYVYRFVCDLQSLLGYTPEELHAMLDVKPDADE

Sequence | binding signal
ATATGT | 1.14
TCAACC | 1.31
CTGGAT | 1.35
GAACCT | 1.11
AATTCC | 1.95
TACGCC | 1.24
TTGTGG | 1.38
ATGATA | 1.26
TCTTTA | 1.26
ATTTCA | 1.27
ATAACT | 1.24
CTATGA | 1.09
GCTACC | 1.27
AGCTAC | 1.19
TCTTGT | 1.49
AACAGG | 1.2
AATCAT | 1.12
GCCGAC | 1.13
GCTCAA | 1.06
AACTGC | 1.36

Looked up one by one from above (two):
Sequence | binding signal
TCTTGT | 1.49
TCAACC | 1.31

Following part

Sequence | binding signal
TCACGA | 1.2
TGAATT | 1.18
TAGCGG | 1.04
TATCAT | 1.21
AGCTCC | 1.24
GTATTA | 1.18
CTCCGC | 1.39
ATGATT | 1.2
TCTGAT | 1.18
TGATGG | 1.43
GAATAC | 1.03
ATCCTG | 1.41
CGCTAG | 1.15
TATAGT | 0.994
TTCCCT | 1.72
ATCTGT | 1.2
TGTTTG | 1.19
CTGCGA | 1.11
TACGAT | 1.1
